For test [1], the target named is T1, SKAP (small kinetochore-associated protein), endogenous (human (endogenous in HeLa)) (UniProt Q9Y448).
T1 sequence: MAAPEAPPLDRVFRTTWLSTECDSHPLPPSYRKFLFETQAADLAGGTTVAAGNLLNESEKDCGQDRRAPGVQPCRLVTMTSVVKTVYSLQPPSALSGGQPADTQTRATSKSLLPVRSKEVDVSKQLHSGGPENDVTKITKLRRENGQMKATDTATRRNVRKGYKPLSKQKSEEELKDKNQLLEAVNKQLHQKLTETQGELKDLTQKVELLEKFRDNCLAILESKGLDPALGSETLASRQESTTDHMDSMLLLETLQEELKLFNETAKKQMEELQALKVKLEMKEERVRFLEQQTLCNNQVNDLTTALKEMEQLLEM
Description: co-IP; HeLa cell lysates (synchronized in mitosis; also unsynchronized, prometaphase or metaphase) incubated with SKAP rabbit IgG pre-bound to Protein A/G-agarose, control IgG; Western blot. A general note: A western blot detects proteins with antibodies after separation by electrophoresis.

For the next test, the target named is T2, GST-SKAP (UniProt Q9Y448).
T2 sequence: T1 sequence
Description: pull-down; GST fusion protein-bound sepharose beads incubated 2 h at 4 °C with HEK293T cell lysates containing GFP-tagged proteins; PBS, 0.1% Triton X-100; anti-GFP blot; only the target purified.

These are yes or no findings as the source states them, for the method shown. Binding seen in cells or lysates may run through a third protein. For some assays here: Sequences can lack the tags named with a protein.

B1: Kif2c (MCAK), endogenous (protein, UniProt Q99661 1-725)
chain: MAMDSSLQARLFPGLAIKIQRSNGLIHSANVRTVNLEKSCVSVEWAEGGATKGKEIDFDDVAAINPELLQLLPLHPKDNLPLQENVTIQKQKRRSVNSKIPAPKESLRSRSTRMSTVSELRITAQENDMEVELPAAANSRKQFSVPPAPTRPSCPAVAEIPLRMVSEEMEEQVHSIRGSSSANPVNSVRRKSCLVKEVEKMKNKREEKKAQNSEMRMKRAQEYDSSFPNWEFARMIKEFRATLECHPLTMTDPIEEHRICVCVRKRPLNKQELAKKEIDVISIPSKCLLLVHEPKLKVDLTKYLENQAFCFDFAFDETASNEVVYRFTARPLVQTIFEGGKATCFAYGQTGSGKTHTMGGDLSGKAQNASKGIYAMASRDVFLLKNQPCYRKLGLEVYVTFFEIYNGKLFDLLNKKAKLRVLEDGKQQVQVVGLQEHLVNSADDVIKMIDMGSACRTSGQTFANSNSSRSHACFQIILRAKGRMHGKFSLVDLAGNERGADTSSADRQTRMEGAEINKSLLALKECIRALGQNKAHTPFRESKLTQVLRDSFIGENSRTCMIATISPGISSCEYTLNTLRYADRVKELSPHSGPSGEQLIQMETEEMEACSNGALIPGNLSKEEEELSSQMSSFNEAMTQIRELEEKAMEELKEIIQQGPDWLELSEMTEQPDYDLETFVNKAESALAQQAKHFSALRDVIKALRLAMQLEEQASRQISSKKRPQ
As for B1, the binding result in test [1] is “no binding”.

B2: GFP-Kif2c (protein, UniProt Q99661 1-725)
chain: B1 chain
Consider B2, for which the binding result with GST-SKAP was “no binding”.

These data come from paper PMC5159797.
